Tested on: gene expression in amygdala, frontal cortex, hippocampus
Test: RNA-sequencing of rat brain areas
Assay type: in vivo
Settings: for share of regulated genes also regulated by the other drug: FIG. 29E; for number of differentially regulated genes: 10 mg/kg IP, 8 hours post-dose, >25% change, padj <0.1; for number of significantly regulated genes: Example 27, 10 mg/kg IP

In the case of `CNC(C)C(=O)c1ccc2c(c1)OCO2` (stereo not shown) [methylone, 3,4-methylenedioxy-N-methylcathinone], the “share of regulated genes also regulated by the other drug” value (amygdala) is reported as 87%, the “number of differentially regulated genes” value (amygdala) is reported as 121 genes and the “number of significantly regulated genes” value (frontal cortex) is reported as 480 genes. The “number of differentially regulated genes” value (frontal cortex) was 471 genes and the “number of differentially regulated genes” value (hippocampus) was 12 genes.
`CNC(C)Cc1ccc2c(c1)OCO2` (racemic) [MDMA, 3,4-Methylenedioxymethamphetamine] was tested, and the “downregulated genes (MDMA only)” value (amygdala, Example 27) was 774 genes, the “upregulated genes (MDMA only)” value (amygdala, Example 27) was 539 genes and the “share of regulated genes also regulated by the other drug” value (amygdala) was 7%. For the same compound, the “more genes regulated than methylone” value (frontal cortex, Example 27) was about 72% and the “number of significantly regulated genes” value (frontal cortex) was 825 genes.
